# PubChem BioAssay AID1224828, NIAID, 2016
# Test: 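Find genes required for NF-kappaB p65 moving into the nucleus after LPS in mouse macrophages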 (primary screen)
# Cells: mouse RAW264.7 G9 macrophage reporter cells (GFP-p65, Tnf promoter-mCherry)
# Knock-down reagent: siRNA pool against mouse genes, 100 nM
# Timing: 2 days siRNA transfection, then 40 min LPS before fixation
# Challenge: LPS (Salmonella minnesota R595) at 10 ng/ml
# Detection: 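Microscopy ratio of nuclear to perinuclear-ring GFP-p65 signal, scaled to the plate median; gene score is the average of two replicate robust z-scores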
# Scale: p65 translocation robust z-score: higher = more nuclear NF-kappaB p65 after LPS than the plate median; nuclear/cytoplasmic p65 ratio: higher = more nuclear NF-kappaB p65
# Active means: 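Called active when z exceeds 3.3 or falls under -1.56 (median of Tlr4 controls), giving activity score of at least 50; no calls for control wells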
# Meaning of the calls: active = hit (p65 shift raised or lowered); inactive = no clear change
# This is an unselected part of about 17,000 deposited reagents. Over the whole deposit, 762 (4.5%) were called active. 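Active calls include both raised and lowered p65 entry, mostly lowered; wells with fewer than 50 cells lack a z-score.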 Raw values are not corrected between plates. Reagent sequences are not shown.
target,p65 translocation robust z-score,"nuclear/cytoplasmic p65 ratio, rep 1","nuclear/cytoplasmic p65 ratio, rep 2",low cell count flag,Call
Enc1 (ectodermal-neural cortex 1),0.19,1.51,1.38,enough cells to score,inactive
"Lzts2 (leucine zipper, putative tumor suppressor 2)",0.16,1.74,1.57,enough cells to score,inactive
Nherf2 (NHERF family PDZ scaffold protein 2),,0,0,fewer than 50 cells per well; well left out of scoring,inactive
Cbx3 (chromobox 3),0.47,1.33,1.44,enough cells to score,inactive
Itgb1bp2 (integrin beta 1 binding protein 2),,1.23,1.13,fewer than 50 cells per well; well left out of scoring,inactive
Nkx6-2 (NK6 homeobox 2),-1.44,1.5,1.32,enough cells to score,inactive
"Scn9a (sodium channel, voltage-gated, type IX, alpha)",,1.79,1.48,fewer than 50 cells per well; well left out of scoring,inactive
Spry2 (sprouty RTK signaling antagonist 2),-0.54,1.41,1.54,enough cells to score,inactive
"P2ry10b (purinergic receptor P2Y, G-protein coupled 10B)",-1.54,1.21,1.31,enough cells to score,inactive
Slc35e4,,1.42,1.63,fewer than 50 cells per well; well left out of scoring,inactive
"Ppp2r1b (protein phosphatase 2, regulatory subunit A, beta)",-0.78,1.49,1.5,enough cells to score,inactive
Pramel1 (PRAME like 1),-0.61,1.21,1.23,enough cells to score,inactive
Slc5a1,0.84,1.58,1.69,enough cells to score,inactive
Apbb3 (amyloid beta precursor protein binding family B member 3),0.09,1.64,1.62,enough cells to score,inactive
Rffl (ring finger and FYVE like domain containing protein),-1.14,1.44,1.44,enough cells to score,inactive
"Ugt1a6a (UDP glucuronosyltransferase 1 family, polypeptide A6A)",,0,1.27,fewer than 50 cells per well; well left out of scoring,inactive
"Pms2 (PMS1 homolog2, mismatch repair system component)",0.24,1.53,1.44,enough cells to score,inactive
Klhl25 (kelch-like 25),-0.37,1.59,1.71,enough cells to score,inactive
Casp1 (caspase 1),0.14,1.68,1.6,enough cells to score,inactive
Arsa (arylsulfatase A),0.3,1.71,1.62,enough cells to score,inactive
"Tcf7l1 (transcription factor 7 like 1 (T cell specific, HMG box))",-0.83,1.35,1.45,enough cells to score,inactive
"Zmat1 (zinc finger, matrin type 1)",-1.25,1.18,1.63,enough cells to score,inactive
Six1 (sine oculis-related homeobox 1),2.24,1.85,1.27,enough cells to score,inactive
Hmcn2 (hemicentin 2),-0.47,1.42,1.86,enough cells to score,inactive
Slc35e2,0.99,1.2,1.67,enough cells to score,inactive
Or51f5 (olfactory receptor family 51 subfamily F member 5),-1.74,1.21,1.04,enough cells to score,active
Hmgxb4 (HMG box domain containing 4),-0.2,1.39,1.37,enough cells to score,inactive
"Zdhhc24 (zinc finger, DHHC domain containing 24)",,1.66,1.29,fewer than 50 cells per well; well left out of scoring,inactive
Psme3,,1.25,1.21,fewer than 50 cells per well; well left out of scoring,inactive
Uxt (ubiquitously expressed prefoldin like chaperone),-0.2,1.37,1.2,enough cells to score,inactive
A930012O16Rik (RIKEN cDNA A930012O16 gene),-0.93,1.32,1.4,enough cells to score,inactive
"Pou3f2 (POU domain, class 3, transcription factor 2)",-1.58,1.34,1.15,enough cells to score,active
"Zer1 (zyg-11 related, cell cycle regulator)",,1.11,1.24,fewer than 50 cells per well; well left out of scoring,inactive
Cdc14b (CDC14 cell division cycle 14B),0.33,1.59,1.35,enough cells to score,inactive
1700010D01Rik (RIKEN cDNA 1700010D01 gene),-1.08,1.3,1.23,enough cells to score,inactive
"Nlrp9b (NLR family, pyrin domain containing 9B)",-0.86,1.75,1.37,enough cells to score,inactive
Samd5 (sterile alpha motif domain containing 5),-0.48,1.34,1.36,enough cells to score,inactive
Magea8 (MAGE family member A8),0.66,1.81,1.65,enough cells to score,inactive
Eva1b (eva-1 homolog B),,1.05,1.66,fewer than 50 cells per well; well left out of scoring,inactive
Hpgds (hematopoietic prostaglandin D synthase),-0.99,1.4,1.24,enough cells to score,inactive

Part of the list above in another layout.
target | p65 translocation robust z-score | nuclear/cytoplasmic p65 ratio, rep 1 | nuclear/cytoplasmic p65 ratio, rep 2 | low cell count flag | Call
Uxt (ubiquitously expressed prefoldin like chaperone) | -0.2 | 1.37 | 1.2 | enough cells to score | inactive
A930012O16Rik (RIKEN cDNA A930012O16 gene) | -0.93 | 1.32 | 1.4 | enough cells to score | inactive
